What all share (assay): EMSA
The subject of data set [1] is hPUF_MT(R8_N12S,Q16R, R3→R5, R4→R6) R8 repeat N12S,Q16R. As to conditions: C>>G; purified recombinant protein; label: Alexa680 at 5' and 3'; variant of OTS-1511.
Data set [2] deals with T1, hPUF_MT(1-2-5-6-5-6-5-6_IRP) last R6 C-terminus changed to IRP.
T1 sequence: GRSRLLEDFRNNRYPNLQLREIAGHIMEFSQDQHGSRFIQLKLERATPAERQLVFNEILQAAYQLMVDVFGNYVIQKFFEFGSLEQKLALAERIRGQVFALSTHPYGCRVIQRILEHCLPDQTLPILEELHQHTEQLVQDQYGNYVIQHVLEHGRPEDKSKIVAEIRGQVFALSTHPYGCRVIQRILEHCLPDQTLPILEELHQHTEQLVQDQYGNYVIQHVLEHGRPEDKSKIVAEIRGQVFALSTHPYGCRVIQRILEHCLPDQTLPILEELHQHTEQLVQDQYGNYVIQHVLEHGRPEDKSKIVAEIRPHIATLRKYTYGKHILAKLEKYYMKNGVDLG
As to conditions: weaker than WT; purified recombinant protein; label: Alexa680 at 5' and 3'; variant of OTS-1511.

Data set [3] concerns T2, hPUF_MT(R7→R5).
T2 sequence: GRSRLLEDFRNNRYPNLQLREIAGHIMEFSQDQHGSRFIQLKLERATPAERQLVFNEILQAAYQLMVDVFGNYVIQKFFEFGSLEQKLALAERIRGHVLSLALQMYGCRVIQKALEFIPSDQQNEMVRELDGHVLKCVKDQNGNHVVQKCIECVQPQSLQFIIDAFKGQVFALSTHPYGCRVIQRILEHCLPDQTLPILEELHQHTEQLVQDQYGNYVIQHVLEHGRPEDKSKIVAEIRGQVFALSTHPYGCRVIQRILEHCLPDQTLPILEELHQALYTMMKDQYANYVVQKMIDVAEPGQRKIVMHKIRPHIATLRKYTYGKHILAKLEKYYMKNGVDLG
As to conditions: significantly weaker than WT; purified recombinant protein; label: Alexa680 at 5' and 3'; variant of OTS-1511.

Data set [4] concerns T3, hPUF_MT(1-2-5-6-5-6-5_ILQ-8) last R5 C-terminus changed to ILQ.
T3 sequence: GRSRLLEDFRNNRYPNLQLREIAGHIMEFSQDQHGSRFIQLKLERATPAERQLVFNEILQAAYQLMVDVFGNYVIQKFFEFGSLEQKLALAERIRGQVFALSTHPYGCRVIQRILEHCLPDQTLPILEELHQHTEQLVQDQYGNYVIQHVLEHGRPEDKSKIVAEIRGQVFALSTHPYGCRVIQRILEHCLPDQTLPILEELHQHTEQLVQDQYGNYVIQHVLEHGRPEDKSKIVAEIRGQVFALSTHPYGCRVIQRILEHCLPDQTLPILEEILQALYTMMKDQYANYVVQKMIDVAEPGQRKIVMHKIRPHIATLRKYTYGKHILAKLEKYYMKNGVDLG
As to conditions: weaker than WT; purified recombinant protein; label: Alexa680 at 5' and 3'; variant of OTS-1511.

The test system of data set [5] is T4, hPUF_MT(R7_S12C,E16Q, R3→R5, R4→R6) R7 repeat S12C,E16Q.
T4 sequence: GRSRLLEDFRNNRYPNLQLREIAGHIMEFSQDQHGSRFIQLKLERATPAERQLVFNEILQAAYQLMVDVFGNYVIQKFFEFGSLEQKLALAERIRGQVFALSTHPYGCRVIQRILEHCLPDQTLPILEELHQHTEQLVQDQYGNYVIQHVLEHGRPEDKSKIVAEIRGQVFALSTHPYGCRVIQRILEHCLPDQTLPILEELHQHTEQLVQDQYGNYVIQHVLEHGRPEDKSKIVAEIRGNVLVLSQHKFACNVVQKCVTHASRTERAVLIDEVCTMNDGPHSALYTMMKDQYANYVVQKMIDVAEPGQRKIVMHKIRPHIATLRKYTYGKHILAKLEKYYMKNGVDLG
As to conditions: U>C; purified recombinant protein; label: Alexa680 at 5' and 3'; variant of OTS-1511.

The test system of data set [6] is T5, hPUF_MT(R5:A_13R)(R5:A_13Y)2(R6:G_13Y)3.
T5 sequence: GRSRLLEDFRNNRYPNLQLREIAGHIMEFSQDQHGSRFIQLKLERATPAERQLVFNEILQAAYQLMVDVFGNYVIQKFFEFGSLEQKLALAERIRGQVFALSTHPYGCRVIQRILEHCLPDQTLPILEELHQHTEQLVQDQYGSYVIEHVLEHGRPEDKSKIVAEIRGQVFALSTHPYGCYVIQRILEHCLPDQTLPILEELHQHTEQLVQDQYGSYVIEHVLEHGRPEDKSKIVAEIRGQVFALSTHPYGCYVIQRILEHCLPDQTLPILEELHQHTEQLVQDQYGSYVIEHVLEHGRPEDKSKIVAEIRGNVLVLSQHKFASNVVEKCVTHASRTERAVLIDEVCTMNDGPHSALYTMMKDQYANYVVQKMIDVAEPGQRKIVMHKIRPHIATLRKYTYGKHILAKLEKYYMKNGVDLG
As to conditions: 13R slightly greater; purified recombinant protein; label: Alexa680 at 5' and 3'.

A weaker result is weaker than the reference pair of the same experiment. For part of these data: Tags and fusion partners may be left off the protein sequences shown.

For CCAGAAUGGUAUAUAUUCG [OTS-2034], the binding result in data set [1] is recorded as “binds more weakly”.
Consider CCAGAAUUAUAUAUAUUCG [OTS-1754], for which the binding result in data set [2], in data set [3] and in data set [4] was “binds more weakly” throughout.
As to CCAGAAUUCUAUAUAUUCG [OTS-2033], the binding result in data set [5] is recorded as “binds more weakly”.
With CCAGAAUUGGAGAGAUAUUCG [OTS-2008], in data set [6], the binding result was “binds more weakly”.

For the origin of these results see US11472855, “RNA-binding protein” (Panitch Schwarze Belisario & Nadel LLP).
